From PubChem BioAssay AID504444 (National Center for Advancing Translational Sciences (NCATS), 2011)
Among all 360,000 compounds or so, about 7,500 (2.1%) were called active. The shares of active, inactive and inconclusive entries below differ from those in the screen. Calls come from the whole dose curve; as a rule, active = well fitted inhibition curve with a large enough effect; inconclusive = small, poorly fitted or top-dose-only effect, or effect the other way; inactive = flat fitted curve, though single readings scatter. Where the call is inconclusive, the potency comes from a doubtful curve fit.
Potency is the fitted concentration of half-maximal effect.

Assay: Nrf2 qHTS screen for inhibitors; note: nearly all actives have a fitted effect of over 60% in size
Details: A549 ARE-Fluc reporter, luciferase luminescence, 18-24 h; series mostly up to 46 µM
How it was run: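 A549 ARE_Fluc cells (5000/well, 5% FBS OPTI-MEM) pre-incubated 2 h, then treated with compounds 18-24 h at 37C/5% CO2 in concentration-response. CellTiter-Fluor viability read first; BugLite luciferase luminescence after 15 min at room temperature gives Nrf2 activity.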
For `Cc1nn(C(C)C(=O)NCCc2ccccc2)c(=O)c2c1sc1ccccc12` (stereo not given), the Potency was inconclusive: 29.1 µM [activator, single point].
In the case of `Cc1ccc2cc(CN(CC3CCCO3)C(=O)Nc3ccccc3F)c3nnnn3c2c1` (stereo not given), the Potency is reported as inconclusive: 25.9 µM [activator, single point].
In the case of `COc1c2c(cc3oc(=O)ccc13)OC(C)(C)C=C2`, the Potency is reported as inconclusive: 7.31 µM [activator, partial curve, poor fit].
With `C=C1C(=O)O[C@@H]2C[C@@H](C)[C@@H]3C=CC(=O)[C@@]3(C)[C@@H](OC(C)=O)[C@H]12` the Potency was active: 4.11 µM.
With `CNC(=O)COc1ccccc1C(=O)Nc1ccc2c(c1)oc1ccccc12` the Potency was active: 7.31 µM.
With `Cc1ccc(NC(=O)c2cc(N(C)C)ccc2[P+](=O)O)cc1` the Potency was inconclusive: 7.31 µM [activator, partial curve].
For `CCC(C)NC(=O)CCCn1c(=O)c2cccn2c2ccccc21` (stereo not given), the Potency was inconclusive: 8.2 µM [activator, partial curve].
With `Cc1cccc(OCC(=O)O/N=C(\N)c2ccncc2)c1` the Potency was inconclusive: 23.1 µM [activator, single point].
In the case of `COc1ccc(-c2ncccc2O)cc1`, the Potency is reported as inconclusive: 13 µM [activator, single point].
For `COc1ccc(Br)c(/C=N/NC(=O)COc2ccc(-c3ccccc3)cc2)c1`, the Potency was inconclusive: 32.6 µM [falling, single point].
In the case of `Cc1ccc(S(=O)(=O)N2CCOCC2)cc1C(=O)NC1=NCCS1`, the Potency is reported as inconclusive: 29.1 µM [falling, partial curve, poor fit].
In the case of `CC1(C)C(C=C(Cl)Cl)C1C(=O)N1CCN(c2ccccc2)CC1` (stereo not given), the Potency is reported as inconclusive: 18.4 µM [falling, partial curve].
For `COc1ccc(-c2csc(-n3cccn3)n2)cc1`, the Potency was inconclusive: 11.6 µM [activator, partial curve].
In the case of `COc1cc(C(C)=O)ccc1Oc1ncnc2c1cnn2-c1ccc(F)cc1`, the Potency is reported as inconclusive: 29.1 µM [falling, single point].
For `O=S(=O)(c1cccc(Cl)c1)N1CCC(c2nc3ccccc3[nH]2)CC1`, the Potency was inconclusive: 16.4 µM [falling, single point].
For `O=S(=O)(CCSc1nc2ccccc2o1)c1nc2ccccc2s1`, the Potency was “inactive”.
With `O=C(CSc1nc2ccc(NC(=O)CSc3nnnn3Cc3ccccc3)cc2s1)Nc1ccccc1` the Potency was inconclusive: 14.6 µM [falling, partial curve, poor fit].
For `Cc1ccc(C)c(N2CCN(S(=O)(=O)c3ccc4[nH]c5c(c4c3)CCCC5)CC2)c1`, the Potency was “inactive”.
In the case of `CO/C([O-])=N/c1c[n+](-c2ccc(C)cc2)no1`, the Potency is reported as inconclusive: 18.4 µM [activator, single point].
For `CCCCNC(=O)c1ccc2nc(-c3cccs3)c(-c3cccs3)nc2c1`, the Potency was “inactive”.
With `CCn1c(SCC(=O)N2c3ccccc3Sc3ccccc32)nc2c1c(=O)n(C)c(=O)n2C` the Potency was inconclusive: 25.9 µM [falling, partial curve, poor fit].
For `Cc1ccc(C(=O)Nc2cccc(-c3ccc(N4CCOCC4)nn3)c2)cc1`, the Potency was inconclusive: 7.31 µM [activator, partial curve].
For `Fc1ccccc1COc1cccc2cccnc12`, the Potency was inconclusive: 29.1 µM [activator, single point].
With `CCc1ccc(NC(=O)c2cnn3c(C)cc(C)nc23)cc1` the Potency was inconclusive: 20.6 µM [activator, single point].
In the case of `COc1ccc(Cl)cc1C(=O)Nc1ccc2nc3n(c(=O)c2c1)CCCC3`, the Potency is reported as “inactive”.
In the case of `CC1CCC(N2CC(=O)N(Cc3ccc4c(c3)OCO4)C(c3ccc(F)cc3)C2=O)CC1` (stereo not given), the Potency is reported as inconclusive: 29.1 µM [falling, single point].
In the case of `O=C(NCCc1ccc(C(F)(F)F)cc1)C1CCC(=O)N(CCc2cccc(F)c2)C1` (stereo not given), the Potency is reported as inconclusive: 23.1 µM [activator, single point].
In the case of `COc1ccc(C(=O)NCc2ccc3c(c2)OCO3)cc1S(=O)(=O)NCc1ccc(Cl)cc1`, the Potency is reported as inconclusive: 23.1 µM [falling, partial curve, poor fit].
With `COc1ccc(/C=C/C(=O)NCc2c(C)nn(C)c2C)cc1COc1ccc(Br)cc1` the Potency was inconclusive: 25.9 µM [falling, single point].
For `O=C(COc1nsnc1N1CCOCC1)Nc1ccc([N+](=O)[O-])cc1`, the Potency was inconclusive: 16.4 µM [activator, partial curve].
With `O=C(Nc1cccc([N+](=O)[O-])c1)c1ccc2c(c1)OCCO2` the Potency was “inactive”.
With `Cc1cc(C(=O)NCC2CCCO2)sc1C` (stereo not given) the Potency was inconclusive: 7.31 µM [activator, partial curve].
With `COc1ccc(NC(=O)Cn2c(=O)n(CCCC(=O)NCc3ccccc3Cl)c(=O)c3ccccc32)c(OC)c1` the Potency was inconclusive: 16.4 µM [falling, partial curve, poor fit].
For `O=[S+]([O-])(c1ccc(OC(F)(F)F)cc1)N1CCN([S+](=O)([O-])c2ccc3c(c2)OCCO3)CC1`, the Potency was “inactive”.
For `CN(C)c1ccnc(NCc2ccccc2)c1C#N`, the Potency was inconclusive: 16.4 µM [activator, partial curve].
In the case of `S=c1[nH]nc(-c2ccco2)n1/N=C/C(Cl)=C/c1ccccc1`, the Potency is reported as inconclusive: 2.91 µM [activator, partial curve].
In the case of `Cc1ccc2c(=O)c(C(=O)c3ccccc3)cn(CC(=O)NCc3ccccc3)c2n1`, the Potency is reported as “inactive”.
In the case of `Cc1ccc(CNc2nc(-c3ccco3)nn2C(=O)c2ccccc2[N+](=O)[O-])cc1`, the Potency is reported as inconclusive: 9.2 µM [activator, partial curve].
In the case of `NC(=O)c1cccc(S(=O)(=O)N2CC(c3ccccc3)CC2=O)c1` (stereo not given), the Potency is reported as inconclusive: 25.9 µM [falling, partial curve, poor fit].
With `Cn1cnc([N+](=O)[O-])c1Sc1ccc(Br)cc1` the Potency was inconclusive: 18.4 µM [falling, partial curve, poor fit].
With `COc1ccc(/C=N/n2c(SC)nnc2-c2ccccc2)c(OC)c1OC` the Potency was inconclusive: 29.1 µM [activator, single point].
In the case of `CC(C)n1ncc2c(C(=O)Nc3ccc(S(C)(=O)=O)cc3)cc(C3CC3)nc21`, the Potency is reported as inconclusive: 32.6 µM [falling, single point].
In the case of `Cn1c(=O)n(C)c2cc([N+](=O)[O-])c(N3CCN(C(=O)c4ccccc4)CC3)cc21`, the Potency is reported as inconclusive: 14.6 µM [falling, partial curve, poor fit].
For `NS(=O)(=O)c1ccc(Cc2ncc(C(F)(F)F)cc2Cl)s1`, the Potency was active: 20.6 µM.
With `N#Cc1nc(-c2ccc(COc3ccc(Cl)cc3)o2)oc1N1CCCCC1` the Potency was inconclusive: 32.6 µM [falling, partial curve, poor fit].
For `O=C(Nc1cc2c(cc1Br)OCCO2)c1cccs1`, the Potency was inconclusive: 9.2 µM [activator, partial curve].
For `CCOC(=O)c1scc(-c2ccccc2)c1S(=O)(=O)Nc1ccccc1OC`, the Potency was inconclusive: 29.1 µM [falling, single point].
In the case of `CC(C)CC(C(=O)OCC(=O)N1CCN(c2ccccc2)CC1)N1C(=O)c2ccccc2C1=O` (stereo not given), the Potency is reported as “inactive”.
With `CSc1ccc(CN2CCN(C(=O)c3ccc([N+](=O)[O-])cc3)CC2)cc1` the Potency was inconclusive: 18.4 µM [falling, single point].
In the case of `O=C(N/N=C/c1ccc(Br)s1)Nc1ccccc1`, the Potency is reported as inconclusive: 18.4 µM [activator, partial curve, poor fit].
With `COc1ccc(-c2cc3cc4c(cc3cn2)OCO4)cc1` the Potency was inconclusive: 0.326 µM [activator, full curve, poor fit].
For `Cc1cccc(NS(=O)(=O)c2csc(C(N)=O)c2)c1`, the Potency was inconclusive: 32.6 µM [falling, partial curve, poor fit].
With `CC(=O)c1ccc(NC(=O)CSc2ccc(-c3ccc4c(c3)OCO4)nn2)cc1` the Potency was inconclusive: 1.46 µM [activator, partial curve, poor fit].
In the case of `COc1ccc(NC(=O)C23CC4CC(C2)CC(n2cnc(Br)n2)(C4)C3)cc1Cl`, the Potency is reported as “inactive”.
With `COc1ccc(Cn2c(SCc3ccc(C(=O)NC4CCCCC4)cc3)nc3ccncc32)cc1` the Potency was active: 13 µM.
For `CCc1cccc(C)c1Nc1c(-c2ccc(F)cc2)nc2sccn12`, the Potency was inconclusive: 29.1 µM [falling, single point].
For `CS(=O)(=O)N(CC(=O)O)c1ccc(C23CC4CC(CC(C4)C2)C3)cc1`, the Potency was inconclusive: 5.8 µM [falling, full curve, poor fit].
For `COc1ccc(-c2nnc(SCc3ccccn3)n2C)cc1`, the Potency was inconclusive: 20.6 µM [activator, partial curve].
For `Cc1c(C)c(C)c(S(=O)(=O)NCCC(=O)N2CCN(Cc3ccc(C#N)cc3)CC2)c(C)c1C`, the Potency was inconclusive: 29.1 µM [falling, single point].
With `Cc1c(C(=O)N2CCCC2)oc2c1-c1nn(CC(=O)NCc3ccc(OC(C)C)cc3)cc1CC2` the Potency was active: 20.6 µM.
In the case of `CN(CC(=O)Nc1ccc(OC(F)(F)F)cc1)S(=O)(=O)c1ccc2c(c1)CCC(=O)N2`, the Potency is reported as inconclusive: 29.1 µM [falling, single point].
With `Cc1ccc2cc(C#N)c(SCc3nnc(-c4ccccc4[N+](=O)[O-])o3)nc2c1` the Potency was “inactive”.
In the case of `COc1coc(C(O)CN)cc1=O` (stereo not given), the Potency is reported as “inactive”.
For `O=C(Nc1cc(Sc2ccccn2)cc([N+](=O)[O-])c1)c1cccc(F)c1`, the Potency was active: 18.4 µM.
For `COc1cc(-c2nnc(SCc3ccccc3Cl)o2)cc(OC)c1OC`, the Potency was inconclusive: 16.4 µM [falling, partial curve].
